For the experiment, the target named is Cilia and flagella-associated protein 47 (human (endogenous in testis)) (UniProt Q6ZTR5). The experiment in a line: co-IP; protein from human testes (obstructive azoospermia patients) incubated with 7 ul of target antibodies overnight at 4°C, Protein A/G magnetic beads 2 h at room temperature, washed with 1 x PBS three times, immunoblot. Background: Immunoblotting shows a protein as a band on a membrane.

Sequences of proteins named here, by UniProt entry; tags and fusion partners are left off.
UniProt Q6ZTR5: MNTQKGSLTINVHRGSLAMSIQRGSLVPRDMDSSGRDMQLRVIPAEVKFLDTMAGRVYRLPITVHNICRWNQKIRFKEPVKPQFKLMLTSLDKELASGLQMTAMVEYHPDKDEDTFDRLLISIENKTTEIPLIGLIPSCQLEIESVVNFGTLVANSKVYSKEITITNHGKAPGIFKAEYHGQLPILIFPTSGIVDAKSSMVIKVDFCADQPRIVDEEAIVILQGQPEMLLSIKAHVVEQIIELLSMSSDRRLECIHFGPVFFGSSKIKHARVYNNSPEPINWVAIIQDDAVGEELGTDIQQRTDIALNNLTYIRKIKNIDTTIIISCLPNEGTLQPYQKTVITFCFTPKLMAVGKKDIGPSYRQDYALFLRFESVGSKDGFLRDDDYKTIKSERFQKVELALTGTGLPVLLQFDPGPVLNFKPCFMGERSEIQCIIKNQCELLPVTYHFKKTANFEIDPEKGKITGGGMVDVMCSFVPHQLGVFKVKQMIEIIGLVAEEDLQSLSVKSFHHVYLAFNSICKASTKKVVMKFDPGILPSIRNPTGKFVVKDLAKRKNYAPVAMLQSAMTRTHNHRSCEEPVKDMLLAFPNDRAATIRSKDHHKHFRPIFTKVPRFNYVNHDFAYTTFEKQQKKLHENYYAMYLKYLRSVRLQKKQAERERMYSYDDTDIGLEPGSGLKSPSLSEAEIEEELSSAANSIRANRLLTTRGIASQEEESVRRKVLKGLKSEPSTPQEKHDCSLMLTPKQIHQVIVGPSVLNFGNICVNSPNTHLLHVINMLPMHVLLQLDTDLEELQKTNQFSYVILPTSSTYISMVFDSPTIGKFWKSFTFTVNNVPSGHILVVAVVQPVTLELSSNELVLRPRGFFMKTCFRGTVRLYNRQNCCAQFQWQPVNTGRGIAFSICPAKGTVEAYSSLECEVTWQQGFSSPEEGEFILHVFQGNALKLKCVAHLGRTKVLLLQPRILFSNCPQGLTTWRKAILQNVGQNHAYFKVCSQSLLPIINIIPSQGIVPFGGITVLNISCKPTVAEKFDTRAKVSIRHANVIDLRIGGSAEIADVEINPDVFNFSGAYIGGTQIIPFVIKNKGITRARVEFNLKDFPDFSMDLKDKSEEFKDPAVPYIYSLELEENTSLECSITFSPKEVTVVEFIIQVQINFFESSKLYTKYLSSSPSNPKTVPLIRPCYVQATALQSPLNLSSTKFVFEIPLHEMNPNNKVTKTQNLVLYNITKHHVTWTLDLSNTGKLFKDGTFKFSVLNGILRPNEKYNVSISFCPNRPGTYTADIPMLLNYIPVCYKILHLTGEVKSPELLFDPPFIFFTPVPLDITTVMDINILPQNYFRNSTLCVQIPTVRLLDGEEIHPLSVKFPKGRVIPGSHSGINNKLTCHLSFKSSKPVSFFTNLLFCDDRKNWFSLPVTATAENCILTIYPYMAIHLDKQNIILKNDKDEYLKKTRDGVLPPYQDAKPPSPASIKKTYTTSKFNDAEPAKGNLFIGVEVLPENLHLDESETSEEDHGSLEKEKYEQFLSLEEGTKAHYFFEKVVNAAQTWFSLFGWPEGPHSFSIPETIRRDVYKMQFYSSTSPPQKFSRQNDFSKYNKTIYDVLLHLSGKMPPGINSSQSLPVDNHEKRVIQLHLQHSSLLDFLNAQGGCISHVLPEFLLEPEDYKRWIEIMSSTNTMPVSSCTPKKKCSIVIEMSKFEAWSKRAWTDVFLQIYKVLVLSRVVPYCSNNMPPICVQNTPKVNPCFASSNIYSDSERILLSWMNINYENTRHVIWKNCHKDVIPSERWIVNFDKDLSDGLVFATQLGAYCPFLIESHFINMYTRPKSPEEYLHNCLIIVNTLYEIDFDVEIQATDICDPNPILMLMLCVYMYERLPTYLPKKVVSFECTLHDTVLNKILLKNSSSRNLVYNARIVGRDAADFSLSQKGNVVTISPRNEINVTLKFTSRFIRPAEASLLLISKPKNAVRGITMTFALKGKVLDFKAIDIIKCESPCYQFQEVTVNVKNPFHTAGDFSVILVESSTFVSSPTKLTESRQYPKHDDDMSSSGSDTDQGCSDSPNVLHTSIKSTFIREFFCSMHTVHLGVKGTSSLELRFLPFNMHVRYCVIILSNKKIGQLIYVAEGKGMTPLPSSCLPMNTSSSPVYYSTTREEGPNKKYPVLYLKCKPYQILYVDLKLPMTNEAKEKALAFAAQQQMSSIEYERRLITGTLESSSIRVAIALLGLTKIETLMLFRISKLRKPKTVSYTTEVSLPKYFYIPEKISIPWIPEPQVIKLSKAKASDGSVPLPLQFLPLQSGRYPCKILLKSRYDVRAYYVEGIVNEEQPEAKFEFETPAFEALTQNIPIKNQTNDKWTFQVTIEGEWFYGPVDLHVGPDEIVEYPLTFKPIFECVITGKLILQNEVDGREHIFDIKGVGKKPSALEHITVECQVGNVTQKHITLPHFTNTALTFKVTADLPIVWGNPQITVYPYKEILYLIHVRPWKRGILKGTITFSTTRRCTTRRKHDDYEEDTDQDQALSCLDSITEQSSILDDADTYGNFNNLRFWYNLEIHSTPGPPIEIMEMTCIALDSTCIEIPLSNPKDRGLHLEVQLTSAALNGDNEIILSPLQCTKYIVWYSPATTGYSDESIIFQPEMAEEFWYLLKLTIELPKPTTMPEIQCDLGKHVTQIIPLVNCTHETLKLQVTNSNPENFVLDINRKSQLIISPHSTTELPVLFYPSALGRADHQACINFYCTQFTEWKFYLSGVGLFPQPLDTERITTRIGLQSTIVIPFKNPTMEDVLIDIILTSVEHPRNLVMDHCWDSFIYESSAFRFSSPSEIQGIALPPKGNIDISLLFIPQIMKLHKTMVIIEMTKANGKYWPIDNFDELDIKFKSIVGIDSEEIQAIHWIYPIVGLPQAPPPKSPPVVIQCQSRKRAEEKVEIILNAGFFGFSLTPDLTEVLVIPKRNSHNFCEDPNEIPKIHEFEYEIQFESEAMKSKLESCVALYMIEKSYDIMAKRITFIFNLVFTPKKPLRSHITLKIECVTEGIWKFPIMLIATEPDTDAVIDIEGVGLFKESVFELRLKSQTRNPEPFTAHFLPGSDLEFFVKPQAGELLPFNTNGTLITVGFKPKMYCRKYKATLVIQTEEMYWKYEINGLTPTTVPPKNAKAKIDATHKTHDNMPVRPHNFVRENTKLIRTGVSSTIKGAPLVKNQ

Drawing on article PMC10326514, this text covers binding for two molecules.

No constants are given. Whether binding was seen depends on the method and setting. Binding seen in cells or lysates may run through a third protein. Some binding calls cover weakened binding; strength is not graded here.

B1: CFAP69 (protein, UniProt A5D8W1 1-941)
chain: MWTEEAGATAEAQESGIRNKSSSSSQIPVVGVVTEDDEAQDVFKPMDLNRVIKLLEETDKDGLEEKQLKFVKKLVQCYQNGLPLRDLAQIFKILNLCSGKIKNQPRFIESAYDIIKLCGLPFLKKKVSDEITYAEDTANSIALLGDLMKIPSSELRIQICKCIVDFYHAEPPKKHIPGYQQASSSYKIQMAEVGGLAKTMVQSMTLLENQLVEKLWVLKVLQHLSTSEVNCTIMMKAQAASGICTHLNDPDPSGQLLFRSSEILWNLLEKSSKEEVIQQLSNLECLLALKEVFKNLFMRGFSHYDRQLRNDILVITTIIAQNPEAPMIECGFTKDLILFATFNEVKSQNLLVKGLKLSNSYEDFELKKLLFNVIVILCKDLPTVQLLIDGKVILALFTYVKKPEKQKIIDWSAAQHEELQLHAIATLSSVAPLLIEEYMSCQGNARVLAFLEWCESEDPFFSHGNSFHGTGGRGNKFAQMRYSLRLLRAVVYLEDETVNKDLCEKGTIQQMIGIFKNIISKPNEKEEAIVLEIQSDILLILSGLCENHIQRKEIFGTEGVDIVLHVMKTDPRKLQSGLGYNVLLFSTLDSIWCCILGCYPSEDYFLEKEGIFLLLDLLALNQKKFCNLILGIMVEFCDNPKTAAHVNAWQGKKDQTAASLLIKLWRKEEKELGVKRDKNGKIIDTKKPLFTSFQEEQKIIPLPANCPSIAVMDVSENIRAKIYAILGKLDFENLPGLSAEDFVTLCIIHRYLDFKIGEIWNEIYEEIKLEKLRPVTTDKKALEAITTASENIGKMVASLQSDIIESQACQDMQNEQKVYAKIQATHKQRELANKSWEDFLARTSNAKTLKKAKSLQEKAIEASRYHKRPQNAIFHQTHIKGLNTTVPSGGVVTVESTPARLVGGPLVDTDIALKKLPIRGGALQRVKAVKIVDAPKKSIPT
Regarding B1, the binding entry is “binds”.

B2: SEPTIN4 (protein, UniProt O43236 1-996)
chain: MVKTNKPGAKVAVSAQRGSEVTTNTSPQQGHGYVLASSHRSAAVSLNPSHRRSEAAHPTTPHSASDYPRSVSLQSGPGHYAVPTPRGPETGPRTESSRHSSPHLKSQKTQTLASHASSRQWKVSPPREEAARRGSESKSGREVGHHASSIPDAKSTHQLSFQDQKNNLQSQILEDDPPSKVQNPQGVRVPRRILSYPKDEAVQTEPIQRITTTSEIRSPRSPSLLEHGSSCVSADYQTAQRRVPVEESETGPYGPIPSKPKALYRNMNLDSLLKLSVLKDSDGVHRVSARVDPESLHKYSAYPETKPSAKVLVSSQVESNVRTPIRGNSEVGRRVTISPGVQSVEPTHHVTVPSVSEGSHKSSMFVTPEPIYKQQTQKPPEITYMSQGPTPRYPELSQKPSIHAELELTPRPLPPRSLPRYGPDSSWWPLLNPEVETPQSQLTTPDFEPKCSPSLDLLLSGFKIDSSPFCEDLKFQREKASLSPPSPPKEFPSWAPLSEVPQTPKHTCKQPIQRFTAFFLDVSEEMYNRVIWWLKDEEIKRFLEDTTDDGELSKFVKDFSGNASCHPPEAKTWASRPQVPEPRPQAPDLYDDDLEFRPPSRPQSSDNQQYFCAPAPLSPSARPRSPWGKLDPYDSSEDDKEYVGFATLPNQVHRKSVKKGFDFTLMVAGESGLGKSTLVNSLFLTDLYRDRKLLGAEERIMQTVEITKHAVDIEEKGVRLRLTIVDTPGFGDAVNNTECWKPVAEYIDQQFEQYFRDESGLNRKNIQDNRVHCCLYFISPFGHGLRPLDVEFMKALHQRVNIVPILAKADTLTPPEVDHKKRKIREEIEHFGIKIYQFPDCDSDEDEDFKLQDQALKESIPFAVIGSNTVVEARGRRVRGRLYPWGIVEVENPGHCDFVKLRTMLVRTHMQDLKDVTRETHYENYRAQCIQSMTRLVVKERNRNKLTRESGTDFPIPAVPPGTDPETEKLIREKDEELRRMQEMLHKIQKQMKENY
In the case of B2, the binding result is “binds”.
